PubChem BioAssay AID1224826 | NIAID – 2016
In all, the deposit lists about 17,000 reagents; below is an unselected part. Of all reagents, about 1,110 (6.6%) got an active call. 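Active means lowered or raised reporter signal; replicate intensities are raw and not normalised per plate.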 Reagents against one gene are numbered here. A reagent listed more than once was tested more than once; the source does not tell the runs apart. Further read-outs or replicates are left out here.

- Screen: 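Regulators of Tlr4 signalling leading to Tnf-alpha expression in macrophages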 (primary screen)
- System: RAW264.7 G9 macrophages from mouse bearing reporters for p65 (GFP) and the Tnf promoter (mCherry)
- Reagents: siRNA pool against mouse genes, 100 nM
- Duration: 16 h of LPS stimulation, after 2 days of siRNA transfection
- Treatment: bacterial lipopolysaccharide (Salmonella minnesota R595), 10 ng/ml
- Read-out: 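Nuclear mCherry signal of the Tnf promoter reporter measured by imaging after background removal, scaled to each plate median and turned into robust z-scores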
- Scale: Tnf reporter robust z-score: higher = stronger Tnf promoter reporter signal after LPS; Tnf reporter intensity: higher = stronger Tnf promoter reporter signal
- Rule for the call: 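Called active when robust z-score is at most -1.3, matching the median of the Tlr4 knock-down control, or over 3; control wells and wells with under 50 cells never active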
- Calls: active = Tnf reporter clearly lowered or raised; inactive = no clear change in Tnf reporter

Target gene	pool no.	Tnf reporter robust z-score	fewer than 50 cells in well	Tnf reporter intensity, replicate 1	outcome
Plek2 (pleckstrin 2)	1	-0.1	enough cells in well	209	inactive
Or6z3 (olfactory receptor family 6 subfamily Z member 3)	1	-1.05	enough cells in well	105	inactive
Abca14 (ATP-binding cassette, sub-family A member 14)	1		fewer than 50 cells per well; well left out of calls	207	inactive
Hoxb5 (homeobox B5)	1	0.74	enough cells in well	279	inactive
Lratd2 (LRAT domain containing 2)	1	1.1	enough cells in well	344	inactive
Dcaf13 (DDB1 and CUL4 associated factor 13)	1	3.8	enough cells in well	628	active
Eif1b (eukaryotic translation initiation factor 1B)	1	-0.83	enough cells in well	193	inactive
Mphosph9 (M-phase phosphoprotein 9)	1	0.4	enough cells in well	279	inactive
Szrd1 (SUZ RNA binding domain containing 1)	1	0.75	enough cells in well	266	inactive
Mdk (midkine)	1	-1.29	enough cells in well	166	inactive
Slc25a10	1	0.93	enough cells in well	101	inactive
Xkrx (XK related, X-linked)	1	0.59	enough cells in well	186	inactive
Nrtn (neurturin)	1	-0.55	enough cells in well	230	inactive
Rxfp4 (relaxin family peptide receptor 4)	1	-0.76	enough cells in well	142	inactive
Wnk1 (WNK lysine deficient protein kinase 1)	1	0.39	enough cells in well	182	inactive
Wipf1 (WAS/WASL interacting protein family, member 1)	1	0.22	enough cells in well	296	inactive
Zfp524 (zinc finger protein 524)	1		fewer than 50 cells per well; well left out of calls	121	inactive
Rims3 (regulating synaptic membrane exocytosis 3)	1	2.29	enough cells in well	263	inactive
Phf13 (PHD finger protein 13)	1	-0.26	enough cells in well	166	inactive
Rxrb (retinoid X receptor beta)	1	-0.98	enough cells in well	220	inactive
Gtf3a (general transcription factor III A)	1	0.94	enough cells in well	352	inactive
Ankrd10 (ankyrin repeat domain 10)	1	-0.77	enough cells in well	150	inactive
Ppp4r3a (protein phosphatase 4 regulatory subunit 3A)	1	0.36	enough cells in well	315	inactive
Or4c111 (olfactory receptor family 4 subfamily C member 111)	1	1.78	enough cells in well	308	inactive
Tlr4 (toll-like receptor 4)	1	-1.31	enough cells in well	101	active
Poln (DNA polymerase N)	1	0.81	enough cells in well	170	inactive
Or10d3 (olfactory receptor family 10 subfamily D member 3)	1	1.56	enough cells in well	212	inactive
F2rl3 (F2R like thrombin or trypsin receptor 3)	1	0.95	enough cells in well	229	inactive
Esm1 (endothelial cell-specific molecule 1)	1	-0.76	enough cells in well	160	inactive
Slc25a11	1	3.17	enough cells in well	180	active
Ctbp1 (C-terminal binding protein 1)	1	-0.73	enough cells in well	177	inactive
Trim42 (tripartite motif-containing 42)	1	1.75	enough cells in well	193	inactive
Armc2 (armadillo repeat containing 2)	1		fewer than 50 cells per well; well left out of calls	89.6	inactive
Epsti1 (epithelial stromal interaction 1)	1	2.95	enough cells in well	205	inactive
Zfp607b (zinc finger protein 607B)	1	0.38	enough cells in well	142	inactive
Slc31a1	1		fewer than 50 cells per well; well left out of calls	19.3	inactive
Or2l13b (olfactory receptor family 2 subfamily L member 13B)	1	-0.43	enough cells in well	172	inactive
Cyth3 (cytohesin 3)	1	-1.16	enough cells in well	161	inactive
Mpped1 (metallophosphoesterase domain containing 1)	1	-0.35	enough cells in well	184	inactive
Gmip (Gem-interacting protein)	1	-0.21	enough cells in well	270	inactive
Dvl1 (dishevelled segment polarity protein 1)	1	1.4	enough cells in well	300	inactive
Mpp2	1	1.19	enough cells in well	288	inactive
Ptgfrn (prostaglandin F2 receptor negative regulator)	1	0.02	enough cells in well	150	inactive
Myoz2 (myozenin 2)	1	-0.84	enough cells in well	154	inactive
Pals2 (protein associated with LIN7 2, MAGUK family member)	1	1.85	enough cells in well	311	inactive
Pals2 (protein associated with LIN7 2, MAGUK family member)	2	0.29	enough cells in well	202	inactive
Patj (PATJ, crumbs cell polarity complex component)	1	0.27	enough cells in well	159	inactive
Prtn3 (proteinase 3)	1	2.4	enough cells in well	277	inactive
Prox1 (prospero homeobox 1)	1	-0.89	enough cells in well	184	inactive
Or51l4 (olfactory receptor family 51 subfamily L member 4)	1		fewer than 50 cells per well; well left out of calls	40.6	inactive
Nbn (nibrin)	1	-1.11	enough cells in well	164	inactive
Ctdsp1 (CTD small phosphatase 1)	1	-0.5	enough cells in well	185	inactive
Hsf1 (heat shock factor 1)	1	0.12	enough cells in well	292	inactive
Ss18 (SS18, subunit of BAF chromatin remodeling complex)	1	0	enough cells in well	328	inactive
Epn3 (epsin 3)	1	-1	enough cells in well	160	inactive
Gsc2 (goosecoid homebox 2)	1	-1.78	enough cells in well	110	active
Ifna16 (interferon alpha 16)	1	-0.16	enough cells in well	234	inactive
Abce1 (ATP-binding cassette, sub-family E member 1)	1	-0.46	enough cells in well	175	inactive
Or5w20 (olfactory receptor family 5 subfamily W member 20)	1	-0.99	enough cells in well	125	inactive
Aph1c (aph1 homolog C, gamma secretase subunit)	1	0.18	enough cells in well	261	inactive
A130014H13Rik (RIKEN cDNA A130014H13 gene)	1	-0.19	enough cells in well	149	inactive
Cirsr (corepressor of RBPJ and splicing regulator)	1	2.39	enough cells in well	380	inactive
Utp20 (UTP20 small subunit processome component)	1	-0.5	enough cells in well	125	inactive
Edaradd (EDAR associated via death domain)	1	0.03	enough cells in well	254	inactive
Ldah (lipid droplet associated hydrolase)	1	-0.76	enough cells in well	213	inactive
Nicn1 (nicolin 1)	1	1.32	enough cells in well	261	inactive
Bcl2l10 (Bcl2-like 10)	1	-0.46	enough cells in well	100	inactive
Cldn12 (claudin 12)	1	-0.15	enough cells in well	194	inactive
St8sia6 (ST8 alpha-N-acetyl-neuraminide alpha-2,8-sialyltransferase 6)	1	2.17	enough cells in well	173	inactive
Cgas (cyclic GMP-AMP synthase)	1	-0.42	enough cells in well	163	inactive
Stk40 (serine/threonine kinase 40)	1	2.24	enough cells in well	389	inactive
Stk40 (serine/threonine kinase 40)	1		fewer than 50 cells per well; well left out of calls	171	inactive
Prop1 (paired like homeodomain factor 1)	1	-0.93	enough cells in well	174	inactive
Cga (glycoprotein hormones, alpha subunit)	1	1.32	enough cells in well	420	inactive
Triml1 (tripartite motif family-like 1)	1	0.55	enough cells in well	142	inactive
